{"source": "PubChem BioAssay AID493014", "about": "(National Center for Advancing Translational Sciences (NCATS), 2011)", "note": "The campaign covered roughly 340,000 compounds. About 170 (0.05%) were called active. The shares of active, inactive and inconclusive entries below differ from those in the screen. Calls come from the whole dose curve; as a rule, active = well fitted inhibition curve with a large enough effect in the signal ratio, with a control signal flat (not every such curve was filed as active); inconclusive = small, poorly fitted or top-dose-only effect, or effect the other way, or a change in a side signal; inactive = flat fitted curve, though single readings scatter; the % refers to the signal ratio. A potency beside an inconclusive call is a rough fit, not a confirmed value. Potency is the fitted concentration of half-maximal effect.", "data": [{"test": "qHTS Assay to Find Inhibitors of Chronic Active B-Cell Receptor Signaling;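 for activity change, negative = inhibition: plate controls were basal doxycycline-induced cells for no effect and cells given 10 µM MG132 for full effect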", "details": "ABC-DLBCL IkBa-CBG/CBR reporter, luminescence ratio (green luciferase fused to IkBa over red control in TMD8 lymphoma cells), 4 h; activity change, negative = inhibition: at 46.1 µM (top of the series)", "in_short": "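Compounds up to 46 uM were incubated four hours with TMD8 cells whose green CBG68 luciferase is fused to IkappaBalpha; red CBR luminescence normalised the signal, and concentration-effect curves were fitted to fusion, red and ratio data.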", "values": [{"smiles": "COC(=O)c1c(C)oc2cc(Br)c(OCC(=O)C(C)(C)C)cc12", "activity change, negative = inhibition": "inconclusive: 0.833%"}, {"smiles": "CC(=O)Nc1sc(C)c(C)c1C(=O)OCC(=O)N(Cc1ccccc1)C(C)C", "activity change, negative = inhibition": "inconclusive: 3.61%"}, {"smiles": "O=c1ncn(-c2ccccc2C(F)(F)F)c2ncccc12", "activity change, negative = inhibition": "inconclusive: 0.844%"}, {"smiles": "COc1cc(CNc2ccc3[nH]c(=O)[nH]c3c2)ccc1OCc1ccc(C)cc1", "activity change, negative = inhibition": "inconclusive: 0.621%"}, {"smiles": "CC(C)(C)OC(=O)NCC1CCC(C(=O)NC[C@H](CC(=O)O)c2ccc(Cl)cc2)CC1", "note": "(stereo partly drawn)", "activity change, negative = inhibition": "inactive: -4.03%"}, {"smiles": "O=C(NC(Cc1c[nH]c2ccccc12)C(=O)O)c1ccc(Br)cc1", "note": "(stereo not drawn)", "activity change, negative = inhibition": "inconclusive: -0.0804%"}, {"smiles": "Cn1c(CN2CCOCC2)nc2cc(NC(=O)c3ccc(F)cc3)ccc21", "Potency": "inconclusive: 18.4 µM [falling, single point]"}, {"smiles": "COC(=O)c1[nH]c2c(c1C)C(=O)CC(c1ccc(OC)c(OC)c1)C2", "note": "(stereo not drawn)", "activity change, negative = inhibition": "inconclusive: -0.299%"}, {"smiles": "COc1ccc(NC(=O)CCN2C(=O)/C(=C/c3ccc4c(c3)OCO4)SC2=S)cc1", "Potency": "inconclusive: 35.5 µM [falling, single point]"}, {"smiles": "CCC(O)C1CCN(Cc2cn(Cc3ccccc3)nc2-c2cc3ccccc3o2)CC1", "note": "(stereo not drawn)", "activity change, negative = inhibition": "inactive: -18.6%"}, {"smiles": "O=C1Nc2ccccc2/C1=C/c1ccnc2ccccc12", "activity change, negative = inhibition": "inactive: -9.05%"}, {"smiles": "CCCN1C(=O)CC(=O)N=C1SCC(=O)Nc1ccccc1F", "activity change, negative = inhibition": "inactive: -3.9%"}, {"smiles": "CCOC(=O)/C(=C\\c1ccc(OC(F)F)cc1)C1=Nn2c(nnc2-c2ccc(Cl)cc2)SC1", "activity change, negative = inhibition": "inconclusive: 8.09%"}, {"smiles": "COc1ccc(CC(=O)c2ccc(OC3OC(CO)C(O)C(O)C3O)cc2O)cc1", "note": "(stereo not drawn)", "activity change, negative = inhibition": "inconclusive: 1.35%"}, {"smiles": "COc1cc(OC)cc(C(=O)Nc2ccc(N3CCOCC3)cc2N2CCOCC2)c1", "Potency": "inconclusive: 18.4 µM [falling, single point]"}, {"smiles": "N#CCc1nc2ccccc2c(=O)[nH]1", "Potency": "inconclusive: 25.1 µM [falling, partial curve]"}, {"smiles": "CCOC(=O)c1c(CCl)nc2ccccc2c1-c1ccccc1", "activity change, negative = inhibition": "inconclusive: 5.58%"}, {"smiles": "COc1ccc(-c2oc(NC(=O)CSc3nncn3C)c(C#N)c2-c2ccc(OC)cc2)cc1", "activity change, negative = inhibition": "inactive: 14.3%"}, {"smiles": "Cc1cccn2c(=O)c3cc(C#N)c(=O)n(Cc4cccnc4)c3nc12", "activity change, negative = inhibition": "inactive: 3.92%"}, {"smiles": "COC(=O)c1cc2c(C)cc3ccc(C)cn3c-2c1C(=O)OC", "Potency": "inconclusive: 0.731 µM [rising, full curve, poor fit]"}, {"smiles": "COc1ccccc1OCCC(=O)OCC(=O)c1[nH]c(C)c(C(C)=O)c1C", "activity change, negative = inhibition": "inconclusive: -23.9%"}, {"smiles": "COC(C/C=C/C(=O)COCc1ccccc1)OC", "activity change, negative = inhibition": "inconclusive: -15.3%"}, {"smiles": "CCOc1cc(CNC2CCCC2)ccc1OCc1ccccc1Cl", "activity change, negative = inhibition": "inconclusive: -12.2%"}, {"smiles": "CCOC(=O)[C@H]1[C@H]2COc3ccccc3[C@@H]2N2C(=O)c3cc(F)c(F)cc3NC(=O)[C@@]12C", "activity change, negative = inhibition": "inconclusive: -12%"}, {"smiles": "O=C(Nc1nc2c(Cl)cccc2s1)C1CC1", "activity change, negative = inhibition": "inconclusive: -9.18%"}, {"smiles": "CCC(=O)OCCNc1cc(Sc2nc3ccccc3[nH]2)c2nonc2c1[N+](=O)[O-]", "activity change, negative = inhibition": "inconclusive: 25.8%"}, {"smiles": "COc1ccc(S(=O)(=O)N2CCCCCC2)cc1N(C)S(=O)(=O)c1ccccc1", "activity change, negative = inhibition": "inactive: 13.6%"}, {"smiles": "Cc1cccc(-c2nc(CS(=O)CC(=O)NCCc3ccc(Cl)cc3)c(C)o2)c1", "note": "(stereo not drawn)", "activity change, negative = inhibition": "inconclusive: -29.6%"}, {"smiles": "CSc1nnc(NC(=O)c2nc(S(=O)(=O)Cc3ccc(C)cc3)ncc2Cl)s1", "activity change, negative = inhibition": "inconclusive: 4.99%"}, {"smiles": "CCOC(=O)Cc1csc(NC(=O)/C=C\\c2ccccc2Cl)n1", "Potency": "inconclusive: 5.62 µM [rising, full curve]"}, {"smiles": "COC(=O)c1cccc(NC(=S)N2CCN(C)CC2)c1", "activity change, negative = inhibition": "inconclusive: 2.48%"}, {"smiles": "CCCC(=O)C1=C(O)C(C(=O)OC)C(C)(C)CC1=Nc1ccc(C)cc1", "note": "(stereo not drawn)", "Potency": "inconclusive: 35.5 µM [falling, single point]"}, {"smiles": "CCn1c(/C(C#N)=N/O)nc2ccccc21", "activity change, negative = inhibition": "inactive: -0.0388%"}, {"smiles": "CCOc1ccc(/C=C2\\SC(=S)NC2=O)cc1OC", "activity change, negative = inhibition": "inconclusive: 19.3%"}, {"smiles": "Cc1ccc(NS(=O)(=O)c2cc(NC(=O)C(C)Oc3ccccc3)ccc2C)c(C)c1", "note": "(stereo not drawn)", "activity change, negative = inhibition": "inconclusive: 4.67%"}, {"smiles": "CCN1CCN(C(c2cccnc2)c2cc(Cl)c3cccnc3c2O)CC1", "note": "(stereo not drawn)", "Potency": "inconclusive: 35.5 µM [falling, partial curve, poor fit]"}, {"smiles": "COc1ccccc1N1CCN(C(=O)C2CCN(C(=O)c3ccccc3C)CC2)CC1", "activity change, negative = inhibition": "inconclusive: 3.6%"}, {"smiles": "Cc1ccccc1OCC(=O)N(Cc1nnc(-c2ccc(Cl)cc2)o1)C(C)C", "activity change, negative = inhibition": "inconclusive: -5.51%"}, {"smiles": "CC(=O)c1sc(NC(=O)C2CC(=O)N(Cc3ccco3)C2)nc1-c1ccccc1", "note": "(stereo not drawn)", "activity change, negative = inhibition": "inconclusive: 0.0049%"}, {"smiles": "COC(=O)c1sccc1N/N=C(\\C)c1ccc(F)c(Cl)c1", "Potency": "inconclusive: 6.51 µM [rising, single point]"}, {"smiles": "Cc1ccccc1NC(=O)OCc1cccnc1Oc1ccc(Cl)cc1", "activity change, negative = inhibition": "inactive: -8.04%"}, {"smiles": "CCCCC(C(=O)O)C(C)CC(=O)NNC(=O)c1ccco1", "note": "(stereo not drawn)", "Potency": "inconclusive: 11.2 µM [falling, partial curve]"}, {"smiles": "COc1ccccc1N1CCN(S(=O)(=O)c2ccc3c(c2)NC(=O)C(C)C(=O)N3)CC1", "note": "(stereo not drawn)", "activity change, negative = inhibition": "inconclusive: 0.807%"}, {"smiles": "CCCCN(C)CCNC(=O)CCNC(=O)Cn1ccc2ccccc2c1=O", "activity change, negative = inhibition": "inactive: 4.68%"}, {"smiles": "COc1ccc(NC(=O)C/C(C)=N/NC(=O)c2cnccn2)cc1", "Potency": "inconclusive: 17.8 µM [falling, single point]"}, {"smiles": "N=c1c(S(=O)(=O)c2ccc(Cl)cc2)cc2c(=O)n3ccccc3nc2n1Cc1ccco1", "activity change, negative = inhibition": "inconclusive: -12.6%"}, {"smiles": "Cc1ccc(/C=C/C(=O)Nc2ccc(N(C)C)cc2)o1", "Potency": "inconclusive: 20.6 µM [falling, single point]"}, {"smiles": "CC1CN(C(=O)COC(=O)c2ccc(NC(=O)CC#N)cc2)CC(C)O1", "note": "(stereo not drawn)", "Potency": "inconclusive: 28.2 µM [falling, single point]"}, {"smiles": "N#CCCNc1c(Cl)cc(Cl)cc1C(=O)O", "activity change, negative = inhibition": "inconclusive: 0.634%"}, {"smiles": "Cc1ccc(C)c(N2CCN(C(=O)c3csc4ccccc34)CC2)c1", "activity change, negative = inhibition": "inactive: 3.58%"}, {"smiles": "COc1cc(/C=N\\NC(=O)CNC(=O)C(c2ccccc2)c2ccccc2)ccc1O", "activity change, negative = inhibition": "inactive: -18%"}, {"smiles": "CNC(=O)c1ccc(Nc2nnc(-c3ccc(C)c(S(N)(=O)=O)c3)c3ccccc23)cc1", "activity change, negative = inhibition": "inconclusive: 0.462%"}, {"smiles": "O=C(c1cn(-c2ccccc2)nc1-c1ccccc1)N1CCN(c2ccccn2)CC1", "activity change, negative = inhibition": "inconclusive: -23.1%"}, {"smiles": "COc1ccccc1-c1cc(C(F)(F)F)nc(S(=O)(=O)CCCC(=O)NC(C)C)n1", "activity change, negative = inhibition": "inconclusive: -16.6%"}, {"smiles": "CCn1nc(C)c(CNC(=O)CCc2nnc(Cc3c[nH]c4ccccc34)o2)c1C", "activity change, negative = inhibition": "inconclusive: 10.7%"}, {"smiles": "CCOc1cc(C(=S)N2CCC(O)CC2)ccc1OS(=O)(=O)c1ccc(Br)cc1", "Potency": "inconclusive: 1.64 µM [falling, full curve]"}, {"smiles": "O=C(O)C1CCC(Cn2c(SCc3cc(=O)n4ccccc4n3)nc3ccsc3c2=O)CC1", "note": "(stereo not drawn)", "activity change, negative = inhibition": "inconclusive: 14.3%"}, {"smiles": "COC(=O)c1cc(C(=O)NCCC(C)C)cc([N+](=O)[O-])c1", "activity change, negative = inhibition": "inconclusive: 13.2%"}, {"smiles": "Cc1ccc(-c2csc3ncnc(SCC(N)=O)c23)cc1", "Potency": "inconclusive: 22.4 µM [falling, single point]"}, {"smiles": "Cc1cccc(N(Cc2ccccc2)C(=O)c2ccc(CS(C)(=O)=O)cc2)c1", "activity change, negative = inhibition": "inactive: -2.27%"}, {"smiles": "O=C(NN1C(=O)NC2(CCCCC2)C1=O)c1ccc(-c2ccc(Cl)cc2)o1", "activity change, negative = inhibition": "inconclusive: 12.2%"}, {"smiles": "CC(=O)OC[C@H]1O[C@H](CCO/N=C(\\C)CCN2CCCc3nc(C)c(C)cc32)C=C[C@@H]1OC(C)=O", "activity change, negative = inhibition": "inconclusive: -1.48%"}, {"smiles": "O=C(Nc1nc(-c2ccccn2)cs1)c1cccc(S(=O)(=O)N2CCOCC2)c1", "activity change, negative = inhibition": "inactive: -0.976%"}, {"smiles": "O=C(N/N=C/c1cccnc1)c1ccccc1OCc1ccc(Br)cc1", "Potency": "inconclusive: 8.91 µM [falling, partial curve, poor fit]"}, {"smiles": "COc1ccccc1NC(=O)Nc1nc(CC(=O)NCc2c(F)cccc2F)cs1", "Potency": "inconclusive: 7.31 µM [rising, partial curve, poor fit]"}, {"smiles": "Cc1ccc(S(=O)(=O)Nc2ccc(C(=O)N3CCOCC3)cc2)cc1", "activity change, negative = inhibition": "inactive: -1.34%"}, {"smiles": "O=C(NCc1cccs1)c1cc2c(s1)-c1ccccc1OC2", "activity change, negative = inhibition": "inconclusive: -2.4%"}, {"smiles": "C=CCN1C(=O)C(Cc2ccc(SC(F)F)cc2)SC1=Nc1ccc(C(=O)O)cc1", "note": "(stereo not drawn)", "activity change, negative = inhibition": "inactive: 6.7%"}, {"smiles": "O=C(CC1CCCC1)Nc1cc(S(=O)(=O)N2CCOCC2)ccc1O", "activity change, negative = inhibition": "inactive: -1.79%"}, {"smiles": "O=C(Nc1ccnc(-c2ccncc2)n1)c1cccs1", "activity change, negative = inhibition": "inconclusive: 13.9%"}, {"smiles": "Cc1ccc(C)c(NC(=O)CSc2nc(N)c(NC(=O)c3cccs3)c(=O)[nH]2)c1", "activity change, negative = inhibition": "inactive: 6.78%"}, {"smiles": "NS(=O)(=O)c1cccc(NC(=O)COC(=O)c2cc(-c3ccc(Cl)cc3)nc3ccccc23)c1", "activity change, negative = inhibition": "inconclusive: 28%"}, {"smiles": "COc1ccccc1NC(=O)c1ccccc1-c1nc(-c2ccccc2OC)no1", "Potency": "inconclusive: 18.4 µM [falling, single point]"}, {"smiles": "Cc1ccc(SCC(=O)c2sc(-c3ccccc3)nc2C)cc1", "Potency": "inconclusive: 4.61 µM [rising, full curve]"}, {"smiles": "O=C(Nc1ccc(Cl)c(Cl)c1)N(CCCN1CCOCC1)Cc1cccs1", "activity change, negative = inhibition": "inconclusive: -0.591%"}, {"smiles": "CC(C)OCCCNc1ncc2c(n1)CC(c1ccccc1)CC2=O", "note": "(stereo not drawn)", "Potency": "inconclusive: 31.6 µM [falling, single point]"}, {"smiles": "COc1ccccc1NC(=O)C1CCCN(c2nc(C)cc(C)n2)C1", "note": "(stereo not drawn)", "activity change, negative = inhibition": "inconclusive: 4.08%"}, {"smiles": "CCCC12CN(C(=O)c3ccc([N+](=O)[O-])cc3)CC(C)(CN(C(=O)c3ccc([N+](=O)[O-])cc3)C1)C2=O", "Potency": "inconclusive: 5.62 µM [falling, single point]"}]}]}
